Some compounds share one wording; it may come from a single statement.
How the values were obtained:
[1] = Gamut, color tone and chroma of color filter made from resist composition; details: for C* using bar No. 10 / Evaluation of chroma using bar No. 10: coloring agent 6.5 mg per 25 cm^2
Method: 120 parts of cyclohexanone was mixed with 12 parts of the water-insoluble coloring matter compound according to the present invention (1). The water-insoluble coloring matter compound was dispersed by an Attritor (made by Mitsui Mining Co., Ltd.) for 1 hour. Thus, an ink according to the present invention (11) was obtained.
22 parts of the above ink (11) was slowly added to a solution of 96 parts of cyciohexanone including 6.7 parts of an acrylic copolymerized composition containing n-butylmethacrylate, acrylic acid, and hydroxyethylmethacrylate in a mass monomer ratio of 40%:30%:30% (weight-average molecular weight of 10,000), respectively, 1.3 parts of dipentaerythritol pentaacrylate, and 0.4 parts of 2-benzyl-2-dimethylamino-1-(4-morpholinophenyl)-butanone(photopolymerization initiator), and the solution was stirred at room temperature for 3 hours. The solution was filtered with a 1.5 μm filter to obtain a magenta resist composition for a color filter (1) according to the present invention.
The above magenta resist composition for a color filter (1) was spin, coated onto a glass substrate, and dried at 90° C. for 3 minutes. The whole surface of the coating was exposed to light, and post-cured at 180° C. to produce a color filter (1).
The color filter (1) and the comparative color filter (1) above were placed on a contrast ratio measurement sheet, respectively, and the chromaticity (L*, a*, b*) in the L*a*b* color system was measured by a reflection densitometer SpectroLino (made by Gretag Macbeth GmbH). The chroma (C*) was calculated based on the measured value of color properties by the above equation.
(§1) It can be said that as the chromaticity is higher in the magenta gamut direction in the same L*, the chromaticity is closer to the magenta chromaticity represented by the Adobe RGB color space. The color tone was evaluated using the values of a* and b* at L*=50. A sample at L*=50 was formed by controlling the temperature when an image was formed using the SELPHY CP710.
(§2) A: a* is not less than 80, and b* is not more than −15 (much closer to the magenta chromaticity)
(§3) B: a* is not less than 60 and is less than 80, and b* is not more than −15 (closer to the magenta chromaticity)
(§4) C: a* is less than 60, and b* is not more than −15 (far from the magenta chromaticity)
(§5) It can be said that as C* in the same amount of coloring agent per unit area is higher, the lightness and the chroma are higher. The chroma was evaluated using the value of C* wherein the amount of the coloring agent per 25 cm^2 (5 cm×5 cm) of the color filter and the transfer image was 6.5 mg.
(§6) A: C* is not less than 80 (lightness and chroma are very high)
(§7) B: C* is not less than 70 and is less than 30 (lightness and chroma are high)
(§8) C: C* is less than 70 (lightness and chroma are low)

[2] = Color tone and chroma of transfer image from thermal transfer recording sheet; details: for C* using bar No. 10 / Evaluation of chroma using bar No. 10: coloring agent 6.5 mg per 25 cm^2
From the text: While a mixed solution of 13.5 parts of the water-insoluble compound according to the present, invention (4) and 45 parts of methyl ethyl ketone/45 parts of toluene was stirred, 5 parts of a polyvinyl butyral resin (DENKA 3000-K; made by DENKI KAGAKU KOGYO KABUSHIKI KAISHA) was gradually added to the mixed solution to obtain an ink according to the present invention (12).
The above ink (12) was applied onto a polyethylene terephthalate film having a thickness of 4.5 μm (Lumirror; made by Toray Industries, Inc.; such that the thickness after drying was 1 μm, and dried to produce a thermal transfer recording sheet (1).
The thermal transfer recording sheet (1) and the comparative thermal transfer recording sheet (1) above were cut and attached, to a magenta part in an ink cassette for SELPHY CP710 (made by Canon Inc.), respectively, and an image was formed on a dedicated printing paper using a SELPHY CP710 (made by Canon Inc.). The formed images were solid, images of only a magenta color. The respective formed images were a transfer image (1) and a comparative transfer image (1), respectively. In each of the transfer images, the chromaticity (L*, a*, b*) in the L*a*b* color system was measured using a reflection densitometer SpectroLino (made by Gretag Macbeth GmbH). The chroma (C*) was calculated based on the measured value of color properties by the above equation.
as §1, §2, §3, §4, §5, §6, §7, §8

Row | SMILES | Evaluation of color tone at L* = 50 [1] | a* at L* = 50 [1] | b* at L* = 50 [1] | C* using bar No. 10 [1] | Evaluation of chroma using bar No. 10 [1] | Evaluation of color tone at L* = 50 [2] | a* at L* = 50 [2] | b* at L* = 50 [2] | C* using bar No. 10 [2] | Evaluation of chroma using bar No. 10 [2]
1 | Cn1c(=O)cc2c3c(c(Nc4ccccc4)ccc31)C(=O)c1ccccc1-2 [(1), reference compound] | C (a* is less than 60, and b* is not more than −15 (far from the magenta chromaticity)) | 40.6 | −18.0 | 44.4 | C (C* is less than 70 (lightness and chroma are low)) | – | – | – | – | –
2 | Cc1ccc(Nc2ccc3c4c(cc(=O)n3C)-c3ccccc3C(=O)c24)cc1 [(2), reference compound] | C (a* is less than 60, and b* is not more than −15 (far from the magenta chromaticity)) | 38.6 | −13.0 | 40.7 | C (C* is less than 70 (lightness and chroma are low)) | C (a* is less than 60, and b* is not more than −15 (far from the magenta chromaticity)) | 36.5 | −10.6 | 38.0 | C (C* is less than 70 (lightness and chroma are low))
3 | CCCCn1c(=O)c(C(=O)c2ccccc2)c2c3c(c(Nc4ccc(C)cc4)ccc31)C(=O)c1ccccc1-2 [(3), reference compound] | – | – | – | – | – | C (a* is less than 60, and b* is not more than −15 (far from the magenta chromaticity)) | 54.7 | −31.1 | 62.9 | C (C* is less than 70 (lightness and chroma are low))
4 | CCCCC(CC)CNc1ccc2c3c1C(=O)c1ccccc1-c3c(C(C)=O)c(=O)n2CCCC (centres unmarked) [Compound (1)] | A (a* is not less than 80, and b* is not more than −15 (much closer to the magenta chromaticity)) | 85.2 | −20.9 | 87.7 | A (C* is not less than 80 (lightness and chroma are very high)) | A (a* is not less than 80, and b* is not more than −15 (much closer to the magenta chromaticity)) | 84.8 | −20.7 | 87.2 | A (C* is not less than 80 (lightness and chroma are very high))
5 | CCCCC(CC)CNc1ccc2c3c1C(=O)c1ccccc1-c3c(C(=O)c1ccccc1)c(=O)n2CCCC (centres unmarked) [Compound (4)] | A (a* is not less than 80, and b* is not more than −15 (much closer to the magenta chromaticity)) | 88.8 | −27.2 | 92.2 | A (C* is not less than 80 (lightness and chroma are very high)) | A (a* is not less than 80, and b* is not more than −15 (much closer to the magenta chromaticity)) | 89.1 | −28.2 | 93.4 | A (C* is not less than 80 (lightness and chroma are very high))
6 | CCCCC(CC)CNc1ccc2c3c1C(=O)c1ccccc1-c3c(C(=O)c1ccc(OC)cc1)c(=O)n2CCCC (centres unmarked) [Compound (6)] | A (a* is not less than 80, and b* is not more than −15 (much closer to the magenta chromaticity)) | 87.1 | −21.0 | 89.5 | A (C* is not less than 80 (lightness and chroma are very high)) | A (a* is not less than 80, and b* is not more than −15 (much closer to the magenta chromaticity)) | 86.8 | −20.5 | 88.7 | A (C* is not less than 80 (lightness and chroma are very high))
7 | CCCCC(CC)CNc1ccc2c3c1C(=O)c1ccccc1-c3c(C(=O)c1ccccc1)c(=O)n2CC(CC)CCCC (centres unmarked) [Compound (8)] | A (a* is not less than 80, and b* is not more than −15 (much closer to the magenta chromaticity)) | 82.0 | −28.3 | 86.6 | A (C* is not less than 80 (lightness and chroma are very high)) | A (a* is not less than 80, and b* is not more than −15 (much closer to the magenta chromaticity)) | 82.2 | −28.5 | 86.9 | A (C* is not less than 80 (lightness and chroma are very high))
8 | CCCCOCCCNc1ccc2c3c1C(=O)c1ccccc1-c3c(C(=O)c1ccccc1)c(=O)n2CC(CC)CCCC (centres unmarked) [Compound (10)] | A (a* is not less than 80, and b* is not more than −15 (much closer to the magenta chromaticity)) | 86.4 | −22.0 | 87.8 | A (C* is not less than 80 (lightness and chroma are very high)) | A (a* is not less than 80, and b* is not more than −15 (much closer to the magenta chromaticity)) | 85.9 | −23.1 | 89.1 | A (C* is not less than 80 (lightness and chroma are very high))
9 | CCCCC(CC)CNc1ccc2c3c1C(=O)c1ccccc1-c3c(C(=O)c1ccccc1)c(=O)n2C (centres unmarked) [Compound (14)] | – | – | – | – | – | A (a* is not less than 80, and b* is not more than −15 (much closer to the magenta chromaticity)) | 88.6 | −27.1 | 90.2 | A (C* is not less than 80 (lightness and chroma are very high))
10 | CCCCNc1ccc2c3c1C(=O)c1ccccc1-c3c(C(=O)c1ccccc1)c(=O)n2CCCC [Compound (21)] | A (a* is not less than 80, and b* is not more than −15 (much closer to the magenta chromaticity)) | 82.3 | −28.1 | 87.2 | A (C* is not less than 80 (lightness and chroma are very high)) | – | – | – | – | –

Source: US8951340B2, “Water-insoluble coloring matter compound, ink using the water-insoluble coloring matter compound, thermal transfer recording sheet and resist composition for color filter” (Canon Kabushiki Kaisha, priority 2011, dated 2015)
